Measurements published in the supplement of paper PMC4604168 (melanoma cell lines).
Some of the results follow. Repeats are few or missing, and single values can be far off.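 Imaging used 1,536-well plates; nuclei positive for cleaved PARP by antibody were divided by total DNA-stained nuclei to yield the apoptosis fraction. Doses for screening kept most cells viable, and cell lines differ markedly in resting and induced cleaved-PARP levels.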

Columns and labels:
Assay in all cases: cleaved PARP positive nuclei fraction relative to DMSO control; melanoma cells; higher = more apoptosis
Settings in all cases: library dose: low library concentration; 72 h
501Mel = tested on: 501Mel
A101D = tested on: A101D
A2058 = tested on: A2058
A375 = tested on: A375
C32 = tested on: C32
CBRC008 = tested on: CBRC008 (line from a melanoma biopsy)
CBRC013 = tested on: CBRC013 (line from a melanoma biopsy)
CBRC014 = tested on: CBRC014 (line from a melanoma biopsy)
CBRC016 = tested on: CBRC016 (line from a melanoma biopsy)
CBRC017 = tested on: CBRC017 (line from a melanoma biopsy)
COLO792 = tested on: COLO792
COLO800 = tested on: COLO800
COLO829 = tested on: COLO829
G361 = tested on: G361
IPC-298 = tested on: IPC-298
IST-MEL1 = tested on: IST-MEL1
LB2518-MEL = tested on: LB2518-MEL
LOXIMVI = tested on: LOXIMVI
MEL-HO = tested on: MEL-HO

Structure (SMILES)	cleaved PARP positive nuclei fraction (501Mel) [%]	cleaved PARP positive nuclei fraction (A101D) [%]	cleaved PARP positive nuclei fraction (A2058) [%]	cleaved PARP positive nuclei fraction (A375) [%]	cleaved PARP positive nuclei fraction (C32) [%]	cleaved PARP positive nuclei fraction (CBRC008) [%]	cleaved PARP positive nuclei fraction (CBRC013) [%]	cleaved PARP positive nuclei fraction (CBRC014) [%]	cleaved PARP positive nuclei fraction (CBRC016) [%]	cleaved PARP positive nuclei fraction (CBRC017) [%]	cleaved PARP positive nuclei fraction (COLO792) [%]	cleaved PARP positive nuclei fraction (COLO800) [%]	cleaved PARP positive nuclei fraction (COLO829) [%]	cleaved PARP positive nuclei fraction (G361) [%]	cleaved PARP positive nuclei fraction (IPC-298) [%]	cleaved PARP positive nuclei fraction (IST-MEL1) [%]	cleaved PARP positive nuclei fraction (LB2518-MEL) [%]	cleaved PARP positive nuclei fraction (LOXIMVI) [%]	cleaved PARP positive nuclei fraction (MEL-HO) [%]
C=C(c1ccc(C(=O)O)cc1)c1cc2c(cc1C)C(C)(C)CCC2(C)C [Bexarotene] + OCCn1cc(-c2cnc3nnn(Cc4ccc5ncccc5c4)c3n2)cn1 [PF04217903] (first compound 2 µM, partner dose 1 µM)	86.1	66.5	33.5	129	147	226	90.3	84	161	126	134	174	176	79.7	119	54.8	40.4	84.3	61.9
CC(C)C[C@H](NC(=O)[C@H](Cc1ccccc1)NC(=O)c1cnccn1)B(O)O [Bortezomib] + CN(NC(=O)CC(=O)NN(C)C(=S)c1ccccc1)C(=S)c1ccccc1 [STA4783] (first compound 0.001 µM, partner dose 0.006 µM)	286	978	105	2600	187	4450	111	669	358	336	47.3	293	279	2820	122	157	1640	214	148
C[C@@H](Oc1cc(-c2cnn(C3CCNCC3)c2)cnc1N)c1c(Cl)ccc(F)c1Cl [Crizotinib] + CO[C@@H]1[C@H](N(C)C(=O)c2ccccc2)C[C@H]2O[C@]1(C)n1c3ccccc3c3c4c(c5c6ccccc6n2c5c31)C(=O)NC4 [Midostaurin] (first compound 0.2 µM, partner dose 0.08 µM)	78.2	86.2	67.8	242	132	207	122	109	210	86	164	96.8	130	205	93.9	34.4	201	29.9	36.5
CNC(=O)c1cc(Oc2ccc(NC(=O)Nc3ccc(Cl)c(C(F)(F)F)c3)cc2)ccn1 [sorafenib] + CO[C@@H]1[C@H](N(C)C(=O)c2ccccc2)C[C@H]2O[C@]1(C)n1c3ccccc3c3c4c(c5c6ccccc6n2c5c31)C(=O)NC4 [Midostaurin] (first compound 0.4 µM, partner dose 0.08 µM)	68.5	131	101	103	92.9	192	160	398	97.9	95.9	68.7	162	89.4	200	103	69.6	126	272	88.4
CCCS(=O)(=O)Nc1ccc(F)c(C(=O)c2c[nH]c3ncc(Cl)cc23)c1F + O=C(CCCCCCC(=O)Nc1ccccc1)NO [vorinostat] (first compound 0.08 µM, partner dose 0.08 µM)	73.5	208	87.8	82.8	195	40.7	116	85.4	128	251	123	48.2	77.4	123	98.4	75.8	73.5	79.6	164
Cc1cc(Nc2cc(N3CCN(C)CC3)nc(/C=C/c3ccccc3)n2)n[nH]1 + C[C@@H]1CCN(C(=O)CC#N)C[C@@H]1N(C)c1ncnc2[nH]ccc12 [CP690550] (first compound 0.04 µM, partner dose 1 µM)	103	75.5	66.8	91.9	145	68.1	167	77	100	97.7	174	78.3	79.7	118	96.5	96.7	221	102	72.8
Nc1ccn([C@@H]2O[C@H](CO)[C@@H](O)C2(F)F)c(=O)n1 [gemcitabine] + CC(C)(C)c1cnc(CSc2cnc(NC(=O)C3CCNCC3)s2)o1 [SNS-032] (first compound 0.0004 µM, partner dose 0.01 µM)	74.2	165	113	71.4	181	289	122	141	127	119	121	303	157	166	95.9	92.5	112	29.6	185
